Data as given in doi:10.1101/2020.09.09.289009.
These are yes or no findings as the source states them, for the method shown. Binding seen in cells or lysates may run through a third protein. A yes stands for co-enrichment or nearness to the bait. Other partners may have been found. Blank lines part the entries; values can stand above or below the molecule they belong to.

The chains behind the UniProt entries cited, without tags or fusion partners.
UniProt Q96JI7: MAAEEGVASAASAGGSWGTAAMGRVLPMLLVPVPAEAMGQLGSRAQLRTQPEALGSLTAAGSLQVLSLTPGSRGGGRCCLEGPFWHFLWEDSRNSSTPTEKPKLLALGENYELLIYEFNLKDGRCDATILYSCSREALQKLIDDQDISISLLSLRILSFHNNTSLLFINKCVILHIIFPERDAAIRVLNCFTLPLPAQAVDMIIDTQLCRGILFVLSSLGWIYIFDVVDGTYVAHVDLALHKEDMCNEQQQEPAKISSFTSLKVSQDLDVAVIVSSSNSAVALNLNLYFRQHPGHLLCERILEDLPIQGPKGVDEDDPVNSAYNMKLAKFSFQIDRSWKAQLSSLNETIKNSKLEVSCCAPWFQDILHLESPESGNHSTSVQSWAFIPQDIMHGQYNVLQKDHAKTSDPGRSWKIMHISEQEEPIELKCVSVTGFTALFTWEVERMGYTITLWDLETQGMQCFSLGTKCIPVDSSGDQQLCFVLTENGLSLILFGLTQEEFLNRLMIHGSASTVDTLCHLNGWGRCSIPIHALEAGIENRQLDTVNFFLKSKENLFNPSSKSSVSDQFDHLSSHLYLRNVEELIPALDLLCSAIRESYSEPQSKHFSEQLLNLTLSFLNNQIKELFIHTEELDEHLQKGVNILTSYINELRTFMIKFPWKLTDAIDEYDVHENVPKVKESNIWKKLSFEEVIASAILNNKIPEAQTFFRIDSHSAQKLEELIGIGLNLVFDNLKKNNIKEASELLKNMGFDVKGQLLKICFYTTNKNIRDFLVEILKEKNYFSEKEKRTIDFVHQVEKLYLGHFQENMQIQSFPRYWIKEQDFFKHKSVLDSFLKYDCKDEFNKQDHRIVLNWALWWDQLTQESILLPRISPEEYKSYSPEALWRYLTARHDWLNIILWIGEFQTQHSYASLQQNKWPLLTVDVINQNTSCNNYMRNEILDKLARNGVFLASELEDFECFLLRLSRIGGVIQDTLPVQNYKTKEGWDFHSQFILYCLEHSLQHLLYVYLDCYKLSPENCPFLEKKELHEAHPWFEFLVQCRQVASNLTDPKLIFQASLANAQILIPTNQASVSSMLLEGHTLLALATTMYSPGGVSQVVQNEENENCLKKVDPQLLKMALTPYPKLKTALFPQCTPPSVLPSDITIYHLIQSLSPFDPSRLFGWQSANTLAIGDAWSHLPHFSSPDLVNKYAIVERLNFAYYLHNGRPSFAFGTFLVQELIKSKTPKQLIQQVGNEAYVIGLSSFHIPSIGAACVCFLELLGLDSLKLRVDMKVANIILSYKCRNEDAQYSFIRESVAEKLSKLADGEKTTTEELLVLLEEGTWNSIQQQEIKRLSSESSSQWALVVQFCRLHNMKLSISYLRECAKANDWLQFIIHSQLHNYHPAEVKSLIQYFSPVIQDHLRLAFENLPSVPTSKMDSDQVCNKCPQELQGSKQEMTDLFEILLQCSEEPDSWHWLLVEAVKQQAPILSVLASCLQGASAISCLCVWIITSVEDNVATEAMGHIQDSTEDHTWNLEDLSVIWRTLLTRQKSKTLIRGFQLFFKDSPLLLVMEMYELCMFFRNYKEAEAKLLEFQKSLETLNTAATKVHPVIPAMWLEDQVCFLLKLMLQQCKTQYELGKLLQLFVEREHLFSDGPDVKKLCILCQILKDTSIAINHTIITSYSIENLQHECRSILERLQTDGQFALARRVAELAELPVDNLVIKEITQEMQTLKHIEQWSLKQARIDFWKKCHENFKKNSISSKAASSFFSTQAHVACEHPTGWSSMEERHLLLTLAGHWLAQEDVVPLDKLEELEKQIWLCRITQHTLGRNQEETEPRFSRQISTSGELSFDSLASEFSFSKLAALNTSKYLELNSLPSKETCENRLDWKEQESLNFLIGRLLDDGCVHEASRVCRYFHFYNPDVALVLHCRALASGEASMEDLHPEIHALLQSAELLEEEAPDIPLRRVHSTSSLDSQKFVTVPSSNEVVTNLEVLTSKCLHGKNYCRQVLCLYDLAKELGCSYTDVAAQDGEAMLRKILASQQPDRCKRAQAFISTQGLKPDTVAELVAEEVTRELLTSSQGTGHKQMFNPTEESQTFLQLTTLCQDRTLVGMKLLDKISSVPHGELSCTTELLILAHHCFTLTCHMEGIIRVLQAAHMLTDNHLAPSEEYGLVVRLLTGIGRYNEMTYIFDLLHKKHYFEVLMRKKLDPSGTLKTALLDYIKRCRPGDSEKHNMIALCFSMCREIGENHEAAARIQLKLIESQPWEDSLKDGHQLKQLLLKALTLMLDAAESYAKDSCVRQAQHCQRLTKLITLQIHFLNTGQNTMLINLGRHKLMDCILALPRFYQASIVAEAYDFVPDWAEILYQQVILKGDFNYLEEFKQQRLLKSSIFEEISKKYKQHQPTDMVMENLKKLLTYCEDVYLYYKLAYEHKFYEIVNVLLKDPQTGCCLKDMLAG
UniProt P62259: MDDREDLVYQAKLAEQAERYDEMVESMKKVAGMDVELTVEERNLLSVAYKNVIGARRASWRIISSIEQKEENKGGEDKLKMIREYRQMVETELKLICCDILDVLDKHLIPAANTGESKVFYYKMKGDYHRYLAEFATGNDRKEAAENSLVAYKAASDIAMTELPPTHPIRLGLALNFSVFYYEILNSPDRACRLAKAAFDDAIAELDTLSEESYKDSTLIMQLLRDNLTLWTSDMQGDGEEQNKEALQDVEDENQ
UniProt P68510: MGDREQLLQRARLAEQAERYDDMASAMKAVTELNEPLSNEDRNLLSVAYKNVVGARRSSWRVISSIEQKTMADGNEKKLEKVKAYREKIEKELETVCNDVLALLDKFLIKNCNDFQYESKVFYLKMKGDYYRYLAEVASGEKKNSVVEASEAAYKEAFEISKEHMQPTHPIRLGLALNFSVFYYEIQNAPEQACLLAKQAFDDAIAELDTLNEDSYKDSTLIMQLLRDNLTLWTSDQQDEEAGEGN
UniProt P63101: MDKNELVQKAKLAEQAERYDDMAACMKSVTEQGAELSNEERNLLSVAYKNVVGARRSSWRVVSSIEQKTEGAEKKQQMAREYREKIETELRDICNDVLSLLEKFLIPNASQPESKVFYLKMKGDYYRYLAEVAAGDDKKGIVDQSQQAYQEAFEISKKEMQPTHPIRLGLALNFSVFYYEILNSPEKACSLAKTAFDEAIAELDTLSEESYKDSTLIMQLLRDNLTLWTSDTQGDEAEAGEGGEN

Molecular target: 3xFlag-tagged spatacsin (wild type), from HeLa cells (human) (UniProt Q96JI7)
Assay: affinity purification with mass spectrometry

B1: 14-3-3 protein beta (mouse brain) (protein, UniProt Q9CQV8 1-246)
chain: MTMDKSELVQKAKLAEQAERYDDMAAAMKAVTEQGHELSNEERNLLSVAYKNVVGARRSSWRVISSIEQKTERNEKKQQMGKEYREKIEAELQDICNDVLELLDKYLILNATQAESKVFYLKMKGDYFRYLSEVASGENKQTTVSNSQQAYQEAFEISKKEMQPTHPIRLGLALNFSVFYYEILNSPEKACSLAKTAFDEAIAELDTLNEESYKDSTLIMQLLRDNLTLWTSENQGDEGDAGEGEN
binding: binds

B2: 14-3-3 protein theta (mouse brain) (protein, UniProt P68254 1-245)
chain: MEKTELIQKAKLAEQAERYDDMATCMKAVTEQGAELSNEERNLLSVAYKNVVGGRRSAWRVISSIEQKTDTSDKKLQLIKDYREKVESELRSICTTVLELLDKYLIANATNPESKVFYLKMKGDYFRYLAEVACGDDRKQTIENSQGAYQEAFDISKKEMQPTHPIRLGLALNFSVFYYEILNNPELACTLAKTAFDEAIAELDTLNEDSYKDSTLIMQLLRDNLTLWTSDSAGEECDAAEGAEN
binding: binds

B3: 14-3-3 protein gamma (mouse brain) (protein, UniProt P61982 1-247)
chain: MVDREQLVQKARLAEQAERYDDMAAAMKNVTELNEPLSNEERNLLSVAYKNVVGARRSSWRVISSIEQKTSADGNEKKIEMVRAYREKIEKELEAVCQDVLSLLDNYLIKNCSETQYESKVFYLKMKGDYYRYLAEVATGEKRATVVESSEKAYSEAHEISKEHMQPTHPIRLGLALNYSVFYYEIQNAPEQACHLAKTAFDDAIAELDTLNEDSYKDSTLIMQLLRDNLTLWTSDQQDDDGGEGNN
binding: binds

Results, then the molecule that gave them:

binding: binds
Molecule: 14-3-3 protein epsilon (mouse brain) (from UniProt P62259 1-255)

binding: binds
Molecule: 14-3-3 protein eta (mouse brain) (from UniProt P68510 1-246)

binding: binds
Molecule: 14-3-3 protein zeta (mouse brain) (from UniProt P63101 1-245)
